At least one compound was matched to its structure with a doubt left.
Test system: ADAMTS4 gene expression
Assay: qPCR ADAMTS4 gene expression in cartilage explants
Assay type: cell-based
Settings: retinoic acid 0.1-100 μM (FIG. 7)

CC1=C(/C=C/C(C)=C/C=C/C(C)=C/C(=O)O)C(C)(C)CCC1 [Retinoic acid, reference compound]
ADAMTS4 gene induction compared with MMP gene induction: MMP gene expression was induced to a greater extent than genes that specifically targeted proteoglycan proteolytic activity
